## Results of single-concentration screens

The filed quantity is “Percent Effect” (%).
The record does not define 0% and 100%; most values in the screen are far below 50% and negative numbers occur (in some assays of this library far below -100).
This is an unselected part of the compounds tested.

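Whole-parasite assay of Trypanosoma brucei over 72 hours; the read-out is not stated. Tested at 30 µM. Direction is inferred from retests: higher values go with stronger inhibition. Values scatter widely below zero; nearly all retest evidence comes from the higher of the two concentrations used. Of about 64,000 compounds tested this way, about 940 (1.5%) reached 50% or more in at least one test.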

- CN1C(=O)CC(C(=O)O)C12CCN(c1ccc3c(n1)CCCC3)CC2 (stereo not drawn) | 30.28%
- CCn1nc(C)c2nc(C(C)C)nc(NCCCn3ccnc3)c21 | 9.746%
- COC(=O)c1ccoc1CN(C)CC(=O)NC1CCS(=O)(=O)C1 (stereo not drawn) | -2.978%
- CCS(=O)(=O)N1Cc2ncn(C)c2C(COCC2CCOCC2)C1.O=C(O)C(F)(F)F (stereo not drawn) | -6.112%
- Cc1cccc(CNC[C@H]2COCc3nc4cccnc4n32)n1 | -11.14%
- Cc1nn(C)c(N(C)C)c1CNCc1ccnn1C | -12.24%
- Cc1ccccc1C1(CNC(=O)NC(C)c2nncn2C)CC1 (stereo not drawn) | -20.37%
- O=C(CCN1CCOC(Cn2cccn2)C1)NC1CCCC1 (stereo not drawn) | 15.82%
- c1ccc(CCN2CCCC(c3ccnc4nccn34)C2)cc1 (stereo not drawn) | 10.07%
- O=C(O)C(F)(F)F.[H][C@]12CCN(C(=O)c3ccco3)[C@@]1([H])CC[C@H](COCCN1CCCC1)O2 | -19.67%
- COc1ccc2nnc(CCCC(=O)NCc3ccccc3F)n2n1 | -20.77%
- O=C(NS(=O)(=O)c1cccc(C(F)(F)F)c1)c1cscn1 | -14.7%
- C=C(C)CN1CCN(Cc2cnc(OC)nc2)CC1 | -8.675%
- O=C(NCCN1CCCCC1)c1scnc1Cl | -26.46%
- CC(C)(C)n1ncc(NCc2ccccc2)c(Cl)c1=O | -59.01%
- Cc1noc(C)c1C(=O)N1CCCN(C)c2ccc(Cl)cc21 | -24.29%
- Cc1cn2c(n1)C(CNCc1cnn3ccccc13)CCC2 (stereo not drawn) | -7.399%
- [H][C@@]12CC[C@H](Oc3ccccc3F)[C@]1([H])CN(C(=O)Cn1ccnc1)C2 | -12.97%
- O=C(O)c1cnc(N2CCC(c3nccn3CC3CC3)CC2)c(Cl)c1 | 26.11%
- [H][C@@]12CN(Cc3ccccn3)C[C@]1([H])CN(C(=O)Cc1ccccn1)C2 | -13.14%
- COc1cccc2c1OCC(C(=O)N1CCN(S(C)(=O)=O)CC1)C2 (stereo not drawn) | 14.82%
- O=C(CC1CC1)N1CCC2(CC1)CC(Oc1ccccc1)CO2 (stereo not drawn) | 2.74%
- CC(C)C(=O)Nc1cc(C(=O)NC2CC(C)(C)NC(C)(C)C2)nn1C | -9.815%
- Cc1ncccc1Oc1ncnc(N2CCC(O)(CO)CC2)c1C | -15.45%
- CCc1c(C(=O)Nc2ccc(F)c(C(=O)NC)c2)cnn1CC(C)C | -34.51%
- Cc1cccc(OC2CCN(C(=O)Cn3ccc4ccccc43)CC2)n1 | 13.69%
- CS(=O)(=O)N[C@H]1CN(CCOCc2ccccc2)C[C@@H]1C1CC1 | 1.008%
- Cc1cc(C)nc(Nc2cccc(C3CCCN(CC4CC4)C3)n2)n1 (stereo not drawn) | 8.846%
- N[C@H]1CN(C(=O)c2ccc3[nH]c(=O)c(=O)[nH]c3c2)C[C@@H]1c1ccccc1 | -8.508%
- CCN(Cc1ccncc1)C(=O)c1cn(CCC2CCCCC2)nn1 | -25.93%
- Cn1ccc(C(=O)N2CCc3[nH]nc(Nc4ccccc4)c3C2)n1 | -18.14%
- [H][C@@]12CCN(C(=O)C3CC3)C[C@]1([H])OCCN(c1ccsc1)C2=O | -4.059%
- [H][C@]12C[C@H](C(=O)NC)N(S(C)(=O)=O)[C@@]1([H])CN(C(=O)c1ccsc1)C2 | -9.296%
- [H][C@]12CC[C@@]3(N=C(C)N(CCOC)C3=O)[C@@]1([H])CN(C(=O)NC1CCCC1)C2 | 5.567%
- O=C(c1ccco1)N1CCc2c(nc(-c3ccncc3)[nH]c2=O)C1 | -11.57%
- COc1cccc(-c2cc(NCc3nc(C)cs3)n(C)n2)c1 | -34.16%
- Cc1ccc(-n2nnc(CC(=O)N3CCSCC3)c2C)cc1 | -3.489%
- O=C(O)C(F)(F)F.[H][C@@]12CN(Cc3scnc3C)C[C@H](C(=O)NCC3CC3)[C@]1([H])CCO2 | -7.943%
- O=C(Cc1cccc(F)c1)N1CCc2ncnc(N3CCCC3)c2CC1 | -51.03%
- CCc1cc(CN(C)C(=O)c2nnc(CN(C)C)o2)on1 | 4.82%
- COc1ccc(OCc2cc(C(=O)N3CCN[C@H](C)C3)n[nH]2)c(Cl)c1 | -10.92%
- O=C(CCc1ccccc1)N1CC(n2cncn2)C1 | -2.383%
- Cc1cnn(CC2CCCN2C(=O)c2cc3ccccc3[nH]2)c1 (stereo not drawn) | 14.16%
- Cc1nc(C)n(CC2CCCN2Cc2nc(N)c3ccccc3n2)n1 (stereo not drawn) | -26.66%
- CCN(CC)CCNC(=O)CCc1c(C)nn(-c2cccc(Cl)c2)c1C | -9.953%
- Cc1cnn(C2CN(CC(O)c3ccc4c(c3)OCCO4)C2)c1 (stereo not drawn) | 6.437%
- CN(CC(N)=O)C(=O)c1cc(Cl)c(Cl)n1C | -27.17%
- c1ccc(-c2nc(CNCCn3cccn3)cs2)cc1 | -63.26%

6 of the entries, repeated:

Compound	effect
CCN(CC)CCNC(=O)CCc1c(C)nn(-c2cccc(Cl)c2)c1C	-9.953%
CCN(Cc1ccncc1)C(=O)c1cn(CCC2CCCCC2)nn1	-25.93%
Cc1cccc(OC2CCN(C(=O)Cn3ccc4ccccc43)CC2)n1	13.69%
N[C@H]1CN(C(=O)c2ccc3[nH]c(=O)c(=O)[nH]c3c2)C[C@@H]1c1ccccc1	-8.508%
[H][C@@]12CN(Cc3ccccn3)C[C@]1([H])CN(C(=O)Cc1ccccn1)C2	-13.14%
CS(=O)(=O)N[C@H]1CN(CCOCc2ccccc2)C[C@@H]1C1CC1	1.008%

The values are deposited in ChEMBL (CHEMBL3988442, “University of Dundee, Small-Polar-MMV Screening Library” (2021)).